Small-molecule microarray binding calls

Calls as published in the ROBIN set (doi:10.1002/anie.202211358).

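The test is a small-molecule microarray: each compound is printed twice on a reactive slide, and binding shows as fluorescence of the labelled oligonucleotide after washing. For the PreQ1, TPP and SAM-II riboswitches the laboratory earlier reported (doi:10.1038/s41467-019-09493-3) 1 µM RNA, 2 h, and a rule that included a mean Z-score above 3 (spot signal-to-noise against the whole library), a score well above that on a control array, and duplicate spots agreeing (coefficient of variation under 100). The data file gives only the calls; its cut-offs may differ, and compounds hitting several targets are kept. These are primary screening calls, not affinities; a compound without a hit may have attached poorly or may still bind in solution.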 Key: hit = hit, no hit = tested without a hit. The compounds are a random part of those screened. A dash means that no call is listed here.

Targets, with sequences 5′ to 3′:
PreQ1: PreQ1 riboswitch RNA pseudoknot, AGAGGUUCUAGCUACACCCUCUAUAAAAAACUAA. From B. subtilis. About 24,000 compounds screened, about 170 hits.
SAM-II: SAM-II riboswitch RNA pseudoknot, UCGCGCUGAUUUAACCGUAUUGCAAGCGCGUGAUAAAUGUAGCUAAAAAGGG. About 21,000 compounds screened, about 200 hits.
TPP: TPP riboswitch RNA three-way junction, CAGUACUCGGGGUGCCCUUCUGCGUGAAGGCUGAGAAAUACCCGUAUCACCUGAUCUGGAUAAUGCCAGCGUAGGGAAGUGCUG. About 24,000 compounds screened, about 160 hits.

Compound,PreQ1,SAM-II,TPP
CC(Cn1cnc2ccccc2c1=O)NCc1ccc2nonc2c1 (centres undefined),no hit,no hit,no hit
COCC(C)NCc1ccccc1CN1CCCC1=O (centres undefined),no hit,no hit,no hit
COc1ccc(NC2CCCNC2)cc1OC (centres undefined),no hit,no hit,no hit
CC(C)(C)c1nc(-c2cccc(NS(=O)(=O)c3c(F)cccc3F)c2F)c(-c2ccnc(N)n2)s1,no hit,no hit,no hit
COc1ccc(CNCc2cccc(OC)c2OC)cc1Br,no hit,no hit,no hit
Cl.Cl.O=C1c2cccc3cccc(c23)C(=O)N1CCN1CCN(CC(O)COCc2ccccc2)CC1 (centres undefined),no hit,no hit,no hit
Cc1csc(C2=C(N)N(CC(c3ccccc3)c3ccccc3)CC2=O)n1,no hit,-,no hit
CC1CCCC(Nc2ncnc3onc(-c4ccc(Cl)cc4)c23)C1C (centres undefined),no hit,no hit,no hit
COc1ccc(CNCC2(c3ccccc3)CCCC2)cc1,no hit,no hit,no hit
Cc1ccc(-c2nc(S(=O)(=O)c3ccc(C)cc3)c(NC3CC3)o2)cc1,no hit,-,no hit
OC1CCCN(Cc2nc(COc3ccccc3)nn2CC(F)(F)F)C1 (centres undefined),no hit,no hit,no hit
CN(CCO)C[C@@H]1CN(C(=O)c2sccc2Cl)C[C@@H]1CO,no hit,no hit,no hit
Cc1cccc(NC(=O)c2sc3nc4c(cc3c2N)CCCC4)c1C,no hit,no hit,no hit
COC(=O)c1cc(NC2c3ccccc3C(=O)N2Cc2ccco2)cc(C(=O)OC)c1 (centres undefined),no hit,no hit,no hit
CN1CCN(C(=O)CN2CC(Cc3ccccc3)CC2=O)CC12CCNCC2 (centres undefined),no hit,no hit,no hit
CN(C)CCCNc1oc(C=Cc2cccs2)nc1C#N,no hit,-,no hit
Fc1ccc(Nc2nc(-c3ccncc3)cs2)cc1,no hit,no hit,no hit
Cc1ccc(-n2nc(CO)c(C(=O)NC(C)CCCc3ccccc3)n2)cc1 (centres undefined),no hit,-,no hit
CCN(CC)CCNc1cc(C)nc2c(-c3ccc(F)cc3)c(C)nn12,no hit,-,no hit
NC(=O)c1cncc(N2CCC(CO)(Cc3ccccc3)CC2)n1,no hit,no hit,no hit
CCCc1c(C(=O)NCCO)nnn1-c1ccc(C)cc1,no hit,no hit,no hit
CCCOCC(O)CCc1nnc(S)n1-c1ccccc1 (centres undefined),no hit,no hit,no hit
CCCCNc1ccc(S(=O)(=O)Nc2ccccc2)cc1[N+](=O)[O-],no hit,no hit,no hit
Cc1cc2ncn(CC(O)COc3c(C)cccc3C)c2cc1C (centres undefined),no hit,no hit,no hit
CC(C)CCn1c(CN2CCN(CCO)CC2)nc2c1c(=O)n(C)c(=O)n2C,no hit,no hit,no hit
Cc1nccn1-c1ccc(CNC(C)CO)cc1 (centres undefined),no hit,no hit,no hit
Cc1nc(CC(=O)N2CCC3(CC2)c2ccccc2CC3O)cs1 (centres undefined),no hit,no hit,no hit
COC(=O)C=CC(=O)OC,no hit,no hit,no hit
Cc1cncc(NC(=O)NC(CCO)c2ccc(C(C)C)cc2)c1 (centres undefined),no hit,no hit,no hit
Cc1nn2c(NCCN(C)C)cc(C(C)(C)C)nc2c1-c1ccccc1,no hit,-,no hit
Cc1ccc(S(=O)(=O)N(CC(O)Cn2c3ccccc3c3ccccc32)CC2CCCO2)cc1 (centres undefined),no hit,no hit,no hit
CCNC(=O)N1CCC(NC2CCN(c3nc(C)ncc3CC)CC2)CC1,no hit,no hit,no hit
O=C(NCC(c1ccccc1)c1ccccc1)c1nn(-c2ccc(F)cc2)nc1CO,no hit,-,no hit
CCn1nc(C)c(CCn2ccnc2-c2cc3n(n2)CCNC3)c1C,no hit,no hit,no hit
Cc1csc(NC(=O)c2ccc(C(=O)Nc3nc(C)cs3)cc2)n1,no hit,no hit,no hit
Cc1ccc(N2CCN(C(=O)c3cnn4cc(CCO)cnc34)CC2=O)cc1,no hit,no hit,no hit
CCc1ccc(NC(=O)Cn2c(-c3nonc3N)nc3ccccc32)cc1,no hit,no hit,no hit
Nc1ccc(C(=O)Nc2cccc(N)c2)cc1,no hit,no hit,no hit
Cc1c(Cl)cc(C(=O)N2CCCC2CCO)cc1Cl (centres undefined),no hit,no hit,no hit
CCOC(=O)C1=C(C)OC(N)=C(C#N)C1c1ccc(O)cc1 (centres undefined),no hit,no hit,no hit
Cc1ccc2[nH]c(Cc3ccc4nc(N)sc4c3)nc2c1,no hit,no hit,no hit
CN(C)CCCNCCC1(c2cccc(C(F)(F)F)c2)CCOC(C)(C)C1 (centres undefined),no hit,-,no hit
OCCOc1cccc(CN2C[C@H]3C[C@H](O)[C@@H](O)C[C@H]3C2)c1,no hit,no hit,no hit